Binding data for 15 molecules are collected here from patent publication US20250340636A1, “ANTIBODIES TARGETING L1CAM AND USES THEREOF” (MEMORIAL SLOAN-KETTERING CANCER CENTER, priority 2023, published 2025).

Amino acid sequences for entries named in this document (tags omitted). A change or cut given only in a name is not applied to a line headed by its entry. Residues count along the entry.
UniProt P32004: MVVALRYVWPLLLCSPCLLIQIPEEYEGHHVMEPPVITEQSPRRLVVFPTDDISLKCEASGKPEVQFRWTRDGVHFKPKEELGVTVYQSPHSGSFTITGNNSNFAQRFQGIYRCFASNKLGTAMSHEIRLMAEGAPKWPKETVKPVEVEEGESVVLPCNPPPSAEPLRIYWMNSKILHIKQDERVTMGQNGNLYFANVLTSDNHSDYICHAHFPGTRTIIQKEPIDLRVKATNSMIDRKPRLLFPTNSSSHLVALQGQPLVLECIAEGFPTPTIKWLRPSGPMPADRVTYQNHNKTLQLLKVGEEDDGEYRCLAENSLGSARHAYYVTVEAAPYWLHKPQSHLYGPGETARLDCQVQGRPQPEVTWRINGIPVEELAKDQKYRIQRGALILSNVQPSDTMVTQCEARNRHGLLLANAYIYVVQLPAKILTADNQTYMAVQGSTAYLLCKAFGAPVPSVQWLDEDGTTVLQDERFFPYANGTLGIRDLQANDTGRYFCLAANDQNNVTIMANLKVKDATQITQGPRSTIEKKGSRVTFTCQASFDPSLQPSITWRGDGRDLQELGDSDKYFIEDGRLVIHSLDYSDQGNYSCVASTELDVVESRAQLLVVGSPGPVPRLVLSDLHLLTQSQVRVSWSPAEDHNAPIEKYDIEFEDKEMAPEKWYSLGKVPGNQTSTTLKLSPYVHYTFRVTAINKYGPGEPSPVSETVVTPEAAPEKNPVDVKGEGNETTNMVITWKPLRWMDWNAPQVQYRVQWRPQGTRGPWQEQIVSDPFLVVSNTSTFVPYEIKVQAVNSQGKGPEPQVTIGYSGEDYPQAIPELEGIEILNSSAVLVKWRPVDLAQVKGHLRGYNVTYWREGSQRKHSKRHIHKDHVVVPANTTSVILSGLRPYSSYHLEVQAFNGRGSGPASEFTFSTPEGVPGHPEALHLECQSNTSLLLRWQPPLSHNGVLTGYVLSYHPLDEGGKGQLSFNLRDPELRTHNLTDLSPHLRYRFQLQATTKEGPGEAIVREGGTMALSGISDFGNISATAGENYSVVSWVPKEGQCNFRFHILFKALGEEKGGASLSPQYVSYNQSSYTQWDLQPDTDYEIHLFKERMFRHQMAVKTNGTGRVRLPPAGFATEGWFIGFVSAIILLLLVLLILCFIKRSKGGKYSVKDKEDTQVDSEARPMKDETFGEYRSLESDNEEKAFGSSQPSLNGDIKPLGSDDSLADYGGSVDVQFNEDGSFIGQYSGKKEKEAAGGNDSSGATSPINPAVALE
UniProt P11627, residues 20-1123: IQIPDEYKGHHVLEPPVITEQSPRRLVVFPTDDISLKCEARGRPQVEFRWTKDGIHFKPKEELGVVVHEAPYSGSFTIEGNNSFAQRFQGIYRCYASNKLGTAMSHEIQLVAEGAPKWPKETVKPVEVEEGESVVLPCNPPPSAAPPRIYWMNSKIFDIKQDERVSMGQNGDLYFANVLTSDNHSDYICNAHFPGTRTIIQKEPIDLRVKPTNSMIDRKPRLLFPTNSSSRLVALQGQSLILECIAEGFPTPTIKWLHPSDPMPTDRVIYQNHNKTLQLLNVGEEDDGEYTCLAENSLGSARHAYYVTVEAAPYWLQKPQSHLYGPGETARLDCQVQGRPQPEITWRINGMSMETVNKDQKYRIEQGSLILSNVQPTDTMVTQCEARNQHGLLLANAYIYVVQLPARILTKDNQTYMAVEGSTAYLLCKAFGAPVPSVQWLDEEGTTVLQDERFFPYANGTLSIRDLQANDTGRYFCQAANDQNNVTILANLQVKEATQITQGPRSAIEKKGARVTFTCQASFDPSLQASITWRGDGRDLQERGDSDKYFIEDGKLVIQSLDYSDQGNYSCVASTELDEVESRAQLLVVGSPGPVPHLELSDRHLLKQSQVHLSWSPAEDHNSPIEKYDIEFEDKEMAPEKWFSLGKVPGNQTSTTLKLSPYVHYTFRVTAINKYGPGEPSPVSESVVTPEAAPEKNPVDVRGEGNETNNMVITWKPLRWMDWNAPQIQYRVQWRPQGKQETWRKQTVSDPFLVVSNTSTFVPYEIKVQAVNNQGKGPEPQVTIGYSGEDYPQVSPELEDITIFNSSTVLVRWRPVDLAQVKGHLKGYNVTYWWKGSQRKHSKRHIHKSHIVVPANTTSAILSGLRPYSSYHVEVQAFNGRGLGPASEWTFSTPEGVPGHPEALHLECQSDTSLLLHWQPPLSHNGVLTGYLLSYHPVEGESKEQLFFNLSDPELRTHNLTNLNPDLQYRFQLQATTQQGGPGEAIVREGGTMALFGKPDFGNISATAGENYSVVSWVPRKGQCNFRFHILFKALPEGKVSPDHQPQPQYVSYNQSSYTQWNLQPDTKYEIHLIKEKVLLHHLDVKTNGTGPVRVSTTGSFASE

Where a chain is given by its changes, count along the chain named. No constants are given. Whether binding was seen depends on the method and setting. Some binding calls cover weakened binding; strength is not graded here.

The target in experiment [1] is human L1CAM on cells (human) (UniProt P32004). As to the kind of experiment: flow cytometry, 293T cells engineered to overexpress L1CAM.
For experiment [2] the target is unchanged. As to the kind of experiment: flow cytometry on MDA-MB-231 cells (endogenous L1CAM); panel title '20181210 EC50 of 143G03 mAbs on MDA-MB-231'.
Experiment [3] has the same target. As to the kind of experiment: summary of the lead selection.
In experiment [4] the target is soluble cynomolgus monkey L1CAM, His-tagged, monomeric (cynomolgus monkey). As to the kind of experiment: summary of the lead selection.
Experiment [5] deals with soluble mouse L1CAM (monomer), His-tagged (mouse) (UniProt P11627). The experiment in a line: summary of the lead selection.
Experiment [6] addresses soluble cynomolgus monkey L1CAM, His-tagged, monomeric (cynomolgus monkey). As to the kind of experiment: BLI, soluble cynomolgus L1CAM-His. (In BLI a coated tip is dipped into the sample, and binding shifts an interference pattern.)
Experiment [7] deals with human L1CAM on cells (human) (UniProt P32004). As to the kind of experiment: flow cytometry, HEK293T-L1CAM, MCF-7 and MDA-MB-231 cells. A general note: A flow cytometer gives signals particle by particle.
The target is the same in experiment [8]. The experiment in a line: summary of Example 4.
Experiment [9] addresses soluble cynomolgus monkey L1CAM, His-tagged, monomeric (cynomolgus monkey). As to the kind of experiment: summary of Example 4.
The target in experiment [10] is soluble mouse L1CAM (monomer), His-tagged (mouse) (UniProt P11627). As to the kind of experiment: summary of Example 4.
For experiment [11] the target is unchanged. The experiment in a line: restated in the safety study of the ADCs.
Experiment [12] has as its target human L1CAM on cells (human) (UniProt P32004). The experiment in a line: flow cytometry, HEK293T-hL1CAM, MCF-7 and MDA-MB-231 cells.
The target is the same in experiment [13]. As to the kind of experiment: flow cytometry on MCF-7 cells; MFI normalised to secondary antibody only.
The target is the same in experiment [14]. As to the kind of experiment: flow cytometry on MDA-MB-231 cells (endogenous L1CAM); MFI normalised to secondary antibody only.
Experiment [15] has the same target. As to the kind of experiment: flow cytometry on HEK293T cells overexpressing human L1CAM; MFI normalised to secondary antibody only.
Experiment [16] deals with extracellular domain of human L1CAM (isoform 1) fused to a poly-histidine tag via its carboxy terminus (human) (UniProt P32004). As to the kind of experiment: BLI sensorgrams with fit lines; analyte concentrations and the L1CAM construct are not printed on the sheet or in the text (taken as soluble human L1CAM).
Experiment [17] has as its target human L1CAM on cells (human) (UniProt P32004). The experiment in a line: summary of binding data.

B1: 76H12 Fab construct 2 (humanized) (Fab, V domains shown)
VH: QVQLVQSGAEVKKPGASVKVSCKASGYTFTSYWMHWVRQAPGQGLEWMGNVYPGSGSTKYAQKFQGRVTMTRDTSTSTVYMELSSLRSEDTAVYYCARPGNYEGFAYWGQGTLVTVSS
VL: NIQLTQSPSSLSASVGDRVTITCRASESVDSYGSSFMHWYQQKPGKPPKLLIYLASNLESGVPSRFSGSGSGTDFTLTISSLQPEDFATYYCQQNNEDPWTFGQGTKLEIK
With B1, the binding result in [1] is listed as “binds”.

B2: 76H12 Fab construct 6 (humanized) (Fab, V domains shown)
VH: B1 VH with M48I, V68A, M70L, R72V, V79A, A97T
VL: B1 VL with N1D
On to B2, for which the binding result in experiment [1] is recorded as “binds”.

B3: 76H12 Fab construct 8 (humanized) (Fab, V domains shown)
VH: B1 VH with M48I, V68A, M70L, R72V, V79A, A97T
VL: B1 VL
For the molecule B3, the binding result in experiment [1] is “binds”.

B4: 76H12 Fab construct 10 (humanized) (Fab, V domains shown)
VH: B1 VH with M48I, V68A, M70L, R72V, S77N, V79A, A97T
VL: B1 VL with N1D, G72R
Consider B4, for which the binding result in experiment [1] is recorded as “binds”.

B5: 76H12 Fab construct 11 (humanized) (Fab, V domains shown)
VH: B1 VH with M48I, V68A, M70L, R72V, S77N, V79A, A97T
VL: B1 VL
For the molecule B5, the binding result in experiment [1] is listed as “binds”.

B6: 76H12 Fab construct 9 (humanized) (Fab, V domains shown)
VH: B1 VH with M48I, V68A, M70L, R72V, S77N, V79A, A97T
VL: B1 VL with N1D
Turning to B6, the binding entry in experiment [1] is on record as “binds”.

B7: hu14A10 (antibody, V domains shown)
VH: EVQMVESGGGLVQPGGSLRLSCAAPGFIFSSYNMNWVRQAPGKGLEWVSYISSSSSTTYYADSVKGRFTISRDNAKNSLYLQMNSLRDEDTAVYYCASLYSGYDYYYYYGMDVWGQGTTVTVSS
VL: DIVMTQTPLSSPVSLGQPASISCRSSQSLVHSDGNTYLSWLQQRPGQPPRVLIYKISKRFSGVPDRFSGSGAGTDFTLKISRVEAEDVGVYYCMQATQFPFTFGPGTKVDIK
On to B7, for which the binding result in [2] was “binds”.

B8: 14A10 (antibody, V domains shown)
VH: B7 VH
VL: B7 VL
As to B8, the binding result in experiment [3], in experiment [4], in [5], in experiment [6] and in [7] was “binds” throughout.

B9: TDI-Y-005 (antibody, human IgG1, kappa, V domains shown)
VH: B7 VH
VL: DIVMTQTPLSSPVSLGQPASISCRSSQSLVHSDGNTYLSWLQQRPGQPPRVLIYKISKRFSGVPDRFSGSGAGTDFTLKISRVEAEDVGVYYCMQATQFPFTFGPGTKVDIKR
On to B9, for which the binding entry in experiment [8], in experiment [9], in experiment [10], in experiment [11], in experiment [12] and in experiment [13] was “binds” each time. The binding result in experiment [14] and in experiment [15] was “binds” each time.

B10: 13G04 (antibody, V domains shown)
VH: QVQLVQSGAEVKKPGASVKVSCKASGYTFIGYYLHWVRQAPGQGLEWMGWINPNSGGTNSAQKFQGRVTMTRDTSISTTYMDLSRLRSDDTAVYYCARGGLERRDAFDIWGQGTLVTVSS
VL: DIQMTQSPSTLSASVGDRVTITCRASQSISNWLAWYQQKPGKAPNLLIYKASSLESGVPSRFSGSGSGTEFTLTISSLQPDDFATYYCQQYDTYRTFGQGTKVEIK
Turning to B10, the binding result in [6] and in experiment [7] was “binds” throughout.

B11: TDI-Y-004 (antibody, human IgG1, kappa, V domains shown)
VH: QVQLVQSGAEVKKPGSSVKVSCKASGYTFTNYYIHWVRQAPGQGLEWMGKIGPGSGSPYYQGMFKDRVTITADESTSTAYMELSSLRSEDTAVYYCARWLLPFDYWGQGTLVTVSS
VL: EIVLTQSPGTLSLSPGERATLSCRASSSVNYMHWYQQKPGQAPRLLIYATSILASGIPDRFSGSGSGTDYTLTISRLEPEDFAVYYCQQFSSDPLTFGGGTKVEIKR
As to B11, the binding result in experiment [8], in [9], in experiment [12], in experiment [13], in experiment [14] and in [15] was “binds” each time.

B12: 76H12 Fab construct 1 (chimeric; parental mouse 76H12 V-regions) (Fab, V domains shown)
VH: QVQLQQPGSDLVRPGTSVKLSCKASGYTFTSYWMHWVKQRPGQGLEWIGNVYPGSGSTKYDEKFKTKATLTVDTSSNTAYMELSSLTSEDSAVYYCTRPGNYEGFAYWGQGTLVTVSA
VL: NIVLTQSPASLAVSLGQRATISCRASESVDSYGSSFMHWYQQKPGQPPKLLIYLASNLESGVPARFSGSGSRTDFTLTIDPVEADDAATYYCQQNNEDPWTFGGGTKLEIK
Turning to B12, the binding result in experiment [1] is on record as “binds”.

B13: 13F04 (antibody, V domains shown)
VH: QVQLQQPGAELVKPGASVKLSCKASGYIFISYWMHWVKQRPGQGLEWIGEINPRNGRTNYNEKFKSKATLTVDKSSSTAYMQLTSLTSEDSAVYYCARGGDYGGSFDYWGQGTTLTVSS
VL: B12 VL with N1D, S34N, L54R, V62I, I79V, D80N, A87V, N95S
Turning to B13, the binding result in experiment [6] and in [7] was “binds” throughout.

B14: Ch143G03-GF (antibody, V domains shown)
VH: QVQLRQSGAELVRPGTSVKMSCKASGYTFTNYYIHWVKQRPGQGLEWIGKIGPGSGSPYYNGMFKDKATLTVDTSSSTAYMQLSSLTSEDSAVYFCARWLLPFDYWGQGTTLTVSS
VL: QIVLSQSPGILSASPGEKVTMTCRASSSVNYMHWYQQKSGSSPKPWIFATSILASGVPPRFSGSGSGTSYSLTISSVEAEDTATYYCQQFSSDPLTFGAGTKLELK
For the molecule B14, the binding result in experiment [2] and in experiment [16] was “binds” in each case.

B15: 143G03 (antibody, V domains shown)
VH: B14 VH
VL: B14 VL
As to B15, the binding result in experiment [17], in [3], in [4], in [6], in experiment [7] and in [2] was “binds” throughout.
